Values from PubChem BioAssay AID1259254 (NCATS, 2017).
The deposit covers about 59,000 reagents; below is a random part of them. In the full data, about 1,550 (2.6%) got an active call. 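G2 share is only a proxy for re-replication; each gene was hit by three separate siRNAs, and active genes were retested.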 A number with no mark means an inactive call. Reagents against one gene are numbered here. Not all columns of the deposit are shown. Reagent sequences are not shown. Not stated in the record: the amount of reagent.

Assay: 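Gene knock-downs that lead to re-replication, shown by excess G2 DNA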 (primary screen)
Cells: human HCT116 colorectal cancer cells
Knock-down reagent: single siRNA against human genes
Duration: 3 days
Read-out: 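Imaged Hoechst DNA stain sorts each cell into a cycle phase by DNA amount; per plate, G2 fraction set to 0% for non-targeting and 100% for GMNN siRNA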
Scale: G2 robust z-score and G2 cells, % of GMNN control: higher = more G2 cells, more excess DNA replication
Call rule: 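An siRNA counts as active if its G2 robust z-score lies at least 5 MADs above the screen median; here such calls match roughly 38% of GMNN control or more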

gene | reagent no. | G2 robust z-score | G2 cells, % of GMNN control
RMP64 | 1 | 1.92 | 16.5
RMP64 | 2 | 0.346 | 5.4
RMP64 | 3 | -0.168 | 1.79
CAMSAP3 | 1 | -0.487 | -0.463
CAMSAP3 | 2 | 0.168 | 4.15
CAMSAP3 | 3 | -0.663 | -1.69
ANKIB1 | 1 | -0.561 | -0.978
ANKIB1 | 2 | -0.0861 | 2.36
ANKIB1 | 3 | -0.541 | -0.838
HOXB1 | 1 | 1.26 | 11.9
HOXB1 | 2 | 1.05 | 10.4
HOXB1 | 3 | 0.112 | 3.76
SP1 | 1 | 3.13 | 25
SP1 | 2 | 0.357 | 5.48
SP1 | 3 | 3.54 | 27.9
CDC7 | 1 | 1.28 | 12
CDC7 | 2 | 0.0989 | 3.66
CDC7 | 3 | 3.28 | 26.1
ARRDC1 | 1 | -0.478 | -0.393
ARRDC1 | 2 | 1.31 | 12.2
ARRDC1 | 3 | 0.0575 | 3.37

Next part (4 carried over from the part before).
gene | reagent no. | G2 robust z-score | G2 cells, % of GMNN control
CDC7 | 3 | 3.28 | 26.1
ARRDC1 | 1 | -0.478 | -0.393
ARRDC1 | 2 | 1.31 | 12.2
ARRDC1 | 3 | 0.0575 | 3.37
PAK3 | 1 | 2.94 | 23.7
PAK3 | 2 | -1.01 | -4.11
PAK3 | 3 | -0.857 | -3.06
SVOPL | 1 | 0.937 | 9.56
SVOPL | 2 | 5.17 (active) | 39.4
SVOPL | 3 | 1.33 | 12.3
GPSM3 | 1 | -0.442 | -0.143
GPSM3 | 2 | 0.235 | 4.62
GPSM3 | 3 | -0.716 | -2.07
KRTAP27-1 | 1 | 0.733 | 8.12
KRTAP27-1 | 2 | 0.0333 | 3.2
KRTAP27-1 | 3 | -0.265 | 1.1
SLC4A7 | 1 | 0.0524 | 3.34
SLC4A7 | 2 | -1.02 | -4.24
SLC4A7 | 3 | -0.764 | -2.41
IL12RB2 | 1 | -1.15 | -5.09
IL12RB2 | 2 | -0.42 | 0.01
IL12RB2 | 3 | 2.14 | 18
NINL | 1 | 3.32 | 26.3
NINL | 2 | -1.7 | -8.98
NINL | 3 | 0.814 | 8.7
PER1 | 1 | 0.163 | 4.11
PER1 | 2 | -0.796 | -2.64
PER1 | 3 | -0.188 | 1.65
H4C14 | 1 | 3.83 | 29.9
H4C14 | 2 | -1.18 | -5.32
H4C14 | 3 | -0.638 | -1.52
